Results are given in words; binding and its absence hold for the method and conditions named. In cells and extracts the contact can be indirect. A result given as binding can be weak or reduced; the word gives no strength.
Biological target: T1, endogenous Munc13-4 (rat (endogenous in RBL-2H3)) (UniProt Q9R189)
T1 sequence: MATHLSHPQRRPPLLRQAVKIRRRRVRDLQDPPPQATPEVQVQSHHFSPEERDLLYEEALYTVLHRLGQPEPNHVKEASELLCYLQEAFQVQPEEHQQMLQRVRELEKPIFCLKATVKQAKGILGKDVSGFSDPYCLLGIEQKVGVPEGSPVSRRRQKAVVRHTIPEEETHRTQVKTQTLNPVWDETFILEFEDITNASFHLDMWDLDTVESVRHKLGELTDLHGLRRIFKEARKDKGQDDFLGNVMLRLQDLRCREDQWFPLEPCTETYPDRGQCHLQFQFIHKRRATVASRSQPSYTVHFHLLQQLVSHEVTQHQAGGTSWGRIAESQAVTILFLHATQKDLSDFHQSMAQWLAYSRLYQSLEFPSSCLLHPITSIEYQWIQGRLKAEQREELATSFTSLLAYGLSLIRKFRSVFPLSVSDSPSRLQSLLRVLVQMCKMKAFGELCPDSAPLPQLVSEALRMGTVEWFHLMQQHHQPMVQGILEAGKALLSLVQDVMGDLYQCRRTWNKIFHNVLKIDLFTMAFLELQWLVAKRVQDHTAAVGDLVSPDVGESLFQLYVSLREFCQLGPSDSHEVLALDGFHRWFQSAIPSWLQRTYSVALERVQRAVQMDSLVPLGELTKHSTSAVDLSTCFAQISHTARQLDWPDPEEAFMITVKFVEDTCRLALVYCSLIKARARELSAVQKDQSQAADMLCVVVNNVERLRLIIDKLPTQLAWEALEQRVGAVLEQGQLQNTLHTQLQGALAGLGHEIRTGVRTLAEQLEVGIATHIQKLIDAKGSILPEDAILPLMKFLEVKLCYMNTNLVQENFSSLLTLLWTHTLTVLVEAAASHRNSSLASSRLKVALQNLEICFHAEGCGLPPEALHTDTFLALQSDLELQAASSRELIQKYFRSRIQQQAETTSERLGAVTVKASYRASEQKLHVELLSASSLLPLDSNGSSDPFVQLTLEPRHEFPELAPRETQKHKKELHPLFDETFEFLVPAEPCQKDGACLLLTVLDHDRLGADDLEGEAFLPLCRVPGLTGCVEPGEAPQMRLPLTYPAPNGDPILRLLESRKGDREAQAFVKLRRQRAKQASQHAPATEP
Assay: co-IP; RBL-2H3 cells transfected with HA-Rab37, G418-selected, treated with 1 mM DSP before lysis; immunoprecipitation with or without anti-Munc13-4 antibody; blot with anti-HA (3F10) or anti-Munc13-4

**Q.** HA-Rab37 (in RBL-2H3 cells) (rat) was tested. Which binding did it give?
**A.** The binding was “binds”.
